Data as given in PubChem BioAssay AID1259254 (NCATS, 2017).
The whole screen tested about 59,000 reagents; shown is a part drawn at random. In the full data, about 1,550 (2.6%) got an active call. 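G2 share is only a proxy for re-replication; each gene was hit by three separate siRNAs, and active genes were retested.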 Reagents against one gene are numbered here. Not all columns of the deposit are shown. Not stated in the record: the amount of reagent.

- Assay: 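Gene knock-downs that lead to re-replication, shown by excess G2 DNA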 (primary screen)
- Cells: human HCT116 colorectal cancer cells
- Knock-down reagent: single siRNA against human genes
- Time to read-out: 3 days
- Measured: 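Imaged Hoechst DNA stain sorts each cell into a cycle phase by DNA amount; per plate, G2 fraction set to 0% for non-targeting and 100% for GMNN siRNA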
- Direction: G2 robust z-score and G2 cells, % of GMNN control: higher = more G2 cells, more excess DNA replication
- Call rule: 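Active siRNAs have a G2 robust z of 5 or more median absolute deviations over the median, which in these data means about 38% or higher of GMNN control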

APOE (GeneID 348) #1: G2 robust z-score = -0.343; G2 cells, % of GMNN control = 0.552; outcome = inactive
APOE (GeneID 348) #2: G2 robust z-score = -0.212; G2 cells, % of GMNN control = 1.48; outcome = inactive
APOE (GeneID 348) #3: G2 robust z-score = -0.21; G2 cells, % of GMNN control = 1.49; outcome = inactive
ALOX5 (GeneID 240) #1: G2 robust z-score = -0.775; G2 cells, % of GMNN control = -2.48; outcome = inactive
ALOX5 (GeneID 240) #2: G2 robust z-score = -0.469; G2 cells, % of GMNN control = -0.334; outcome = inactive
ALOX5 (GeneID 240) #3: G2 robust z-score = 0.232; G2 cells, % of GMNN control = 4.6; outcome = inactive
CASP10 (GeneID 843) #1: G2 robust z-score = 2.01; G2 cells, % of GMNN control = 17.1; outcome = inactive
CASP10 (GeneID 843) #2: G2 robust z-score = 4.29; G2 cells, % of GMNN control = 33.1; outcome = inactive
CASP10 (GeneID 843) #3: G2 robust z-score = -0.699; G2 cells, % of GMNN control = -1.95; outcome = inactive
ATP6V1B1 (GeneID 525) #1: G2 robust z-score = 0.3; G2 cells, % of GMNN control = 5.08; outcome = inactive
ATP6V1B1 (GeneID 525) #2: G2 robust z-score = -0.544; G2 cells, % of GMNN control = -0.857; outcome = inactive
ATP6V1B1 (GeneID 525) #3: G2 robust z-score = 3.21; G2 cells, % of GMNN control = 25.6; outcome = inactive

Laid out differently: 3 of the entries above.
target gene | reagent no. | G2 robust z-score | G2 cells, % of GMNN control | outcome
CASP10 (GeneID 843) | 3 | -0.699 | -1.95 | inactive
ATP6V1B1 (GeneID 525) | 1 | 0.3 | 5.08 | inactive
ATP6V1B1 (GeneID 525) | 2 | -0.544 | -0.857 | inactive

Further reagents follow.
NPLOC4 (GeneID 55666) #1: G2 robust z-score = -0.693; G2 cells, % of GMNN control = -1.91; outcome = inactive
NPLOC4 (GeneID 55666) #2: G2 robust z-score = 1.03; G2 cells, % of GMNN control = 10.2; outcome = inactive
NPLOC4 (GeneID 55666) #3: G2 robust z-score = -0.636; G2 cells, % of GMNN control = -1.51; outcome = inactive
TMEM268 (GeneID 203197) #1: G2 robust z-score = 0.934; G2 cells, % of GMNN control = 9.54; outcome = inactive
TMEM268 (GeneID 203197) #2: G2 robust z-score = 1.3; G2 cells, % of GMNN control = 12.1; outcome = inactive
TMEM268 (GeneID 203197) #3: G2 robust z-score = 0.0399; G2 cells, % of GMNN control = 3.25; outcome = inactive
KIF23 (GeneID 9493) #1: G2 robust z-score = 4.24; G2 cells, % of GMNN control = 32.8; outcome = inactive
KIF23 (GeneID 9493) #2: G2 robust z-score = 6.03; G2 cells, % of GMNN control = 45.4; outcome = active
KIF23 (GeneID 9493) #3: G2 robust z-score = 3.98; G2 cells, % of GMNN control = 31; outcome = inactive
CACYBP (GeneID 27101) #1: G2 robust z-score = -0.187; G2 cells, % of GMNN control = 1.65; outcome = inactive
CACYBP (GeneID 27101) #2: G2 robust z-score = -0.127; G2 cells, % of GMNN control = 2.07; outcome = inactive
CACYBP (GeneID 27101) #3: G2 robust z-score = 0.712; G2 cells, % of GMNN control = 7.98; outcome = inactive
